Data as given in PubChem BioAssay AID1259284 (Sanger Institute, 2017).
In all, the deposit lists 794 reagents; below is a random part of them. 16 of all reagents (2%) count as active. 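Calls concern knock-down without drug only; drug synergy was judged apart, with scores above 0.15 taken as synergy.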 Unmarked entries are inactive. Viability is capped at 1. Not all columns of the deposit are shown. The record does not give: the amount of reagent, the time to read-out.

Assay: 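Kinase knock-downs that cut colorectal cancer cell growth alone or with targeted drugs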 (primary screen)
Cell system: SW48 human colorectal cancer cells
Reagents: siRNA pool against human genes
Conditions: anchor drug BYL719 at 1 µM, cetuximab at 5 µg/ml or trametinib at 10 nM, or DMSO vehicle alone
Read-out: 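Viability scaled to non-targeting control pool, robust z-score from controls, and synergy scores for each drug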
Scale: robust z-score, no drug: higher = more cells survive knock-down; viability, no drug: higher = more viable cells
Active means: 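a knock-down is essential if viability without drug gives a robust z-score under -3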
Meaning of the calls: active = essential without drug; inactive = no change without drug

CDC42BPA (CDC42 binding protein kinase alpha)
- robust z-score, no drug: -2.23
- viability, no drug (fraction of control): 0.772

TRIB1 (tribbles pseudokinase 1)
- robust z-score, no drug: 0.426
- viability, no drug (fraction of control): 1

PRKACG (protein kinase cAMP-activated catalytic subunit gamma)
- robust z-score, no drug: -1.8
- viability, no drug (fraction of control): 0.809

NTRK2 (neurotrophic receptor tyrosine kinase 2)
- robust z-score, no drug: 0.426
- viability, no drug (fraction of control): 1

MAST2 (microtubule associated serine/threonine kinase 2)
- robust z-score, no drug: 0.426
- viability, no drug (fraction of control): 1

PAPSS1 (3'-phosphoadenosine 5'-phosphosulfate synthase 1)
- robust z-score, no drug: 0.426
- viability, no drug (fraction of control): 1

PIP5K1A (phosphatidylinositol-4-phosphate 5-kinase type 1 alpha)
- robust z-score, no drug: -2.22
- viability, no drug (fraction of control): 0.773

TESK1 (testis associated actin remodelling kinase 1)
- robust z-score, no drug: 0.426
- viability, no drug (fraction of control): 1

ERBB4 (erb-b2 receptor tyrosine kinase 4)
- robust z-score, no drug: 0.426
- viability, no drug (fraction of control): 1

STK10 (serine/threonine kinase 10)
- robust z-score, no drug: 0.426
- viability, no drug (fraction of control): 1

HASPIN (histone H3 associated protein kinase)
- robust z-score, no drug: 0.426
- viability, no drug (fraction of control): 1

LRRK1 (leucine rich repeat kinase 1)
- robust z-score, no drug: 0.426
- viability, no drug (fraction of control): 1

Part of the list above, reformatted.
gene symbol,"robust z-score, no drug","viability, no drug (fraction of control)"
TRIB1 (tribbles pseudokinase 1),0.426,1
PRKACG (protein kinase cAMP-activated catalytic subunit gamma),-1.8,0.809
